{"sequences": {"note": "Amino acid sequences for entries named in this document (tags omitted). A change or cut given only in a name is not applied to a line headed by its entry.", "UniProt P18669": "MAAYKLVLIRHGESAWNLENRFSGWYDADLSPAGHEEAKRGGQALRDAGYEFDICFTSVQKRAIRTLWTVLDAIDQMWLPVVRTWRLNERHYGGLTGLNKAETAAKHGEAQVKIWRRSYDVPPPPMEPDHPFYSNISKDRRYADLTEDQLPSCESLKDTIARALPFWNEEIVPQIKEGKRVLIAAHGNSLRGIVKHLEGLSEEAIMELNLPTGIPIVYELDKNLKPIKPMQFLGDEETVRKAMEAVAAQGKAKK", "UniProt Q8WUM4": "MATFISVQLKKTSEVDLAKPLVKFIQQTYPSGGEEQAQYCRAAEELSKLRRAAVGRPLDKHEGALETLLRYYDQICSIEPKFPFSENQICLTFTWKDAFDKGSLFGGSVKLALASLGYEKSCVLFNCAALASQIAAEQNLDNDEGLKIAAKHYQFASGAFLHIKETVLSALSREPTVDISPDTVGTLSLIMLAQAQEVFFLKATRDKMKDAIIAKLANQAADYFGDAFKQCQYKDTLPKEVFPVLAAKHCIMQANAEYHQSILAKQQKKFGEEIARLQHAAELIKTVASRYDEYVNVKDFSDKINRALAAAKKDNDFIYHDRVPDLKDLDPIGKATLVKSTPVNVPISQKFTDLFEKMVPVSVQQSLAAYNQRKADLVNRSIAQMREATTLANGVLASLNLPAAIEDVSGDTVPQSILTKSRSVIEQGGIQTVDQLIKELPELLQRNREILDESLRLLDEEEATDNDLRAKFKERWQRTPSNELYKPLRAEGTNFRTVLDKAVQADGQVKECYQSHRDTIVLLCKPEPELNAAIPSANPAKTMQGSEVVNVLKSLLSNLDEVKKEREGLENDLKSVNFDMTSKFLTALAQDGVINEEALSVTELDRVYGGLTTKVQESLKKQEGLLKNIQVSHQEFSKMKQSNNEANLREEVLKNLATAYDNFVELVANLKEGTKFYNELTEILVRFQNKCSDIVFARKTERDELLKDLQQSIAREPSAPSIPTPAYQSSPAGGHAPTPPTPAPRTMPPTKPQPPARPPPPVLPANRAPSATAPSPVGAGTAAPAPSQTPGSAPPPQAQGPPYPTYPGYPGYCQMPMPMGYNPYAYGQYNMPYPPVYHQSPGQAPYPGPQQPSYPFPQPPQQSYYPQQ", "UniProt P11498": "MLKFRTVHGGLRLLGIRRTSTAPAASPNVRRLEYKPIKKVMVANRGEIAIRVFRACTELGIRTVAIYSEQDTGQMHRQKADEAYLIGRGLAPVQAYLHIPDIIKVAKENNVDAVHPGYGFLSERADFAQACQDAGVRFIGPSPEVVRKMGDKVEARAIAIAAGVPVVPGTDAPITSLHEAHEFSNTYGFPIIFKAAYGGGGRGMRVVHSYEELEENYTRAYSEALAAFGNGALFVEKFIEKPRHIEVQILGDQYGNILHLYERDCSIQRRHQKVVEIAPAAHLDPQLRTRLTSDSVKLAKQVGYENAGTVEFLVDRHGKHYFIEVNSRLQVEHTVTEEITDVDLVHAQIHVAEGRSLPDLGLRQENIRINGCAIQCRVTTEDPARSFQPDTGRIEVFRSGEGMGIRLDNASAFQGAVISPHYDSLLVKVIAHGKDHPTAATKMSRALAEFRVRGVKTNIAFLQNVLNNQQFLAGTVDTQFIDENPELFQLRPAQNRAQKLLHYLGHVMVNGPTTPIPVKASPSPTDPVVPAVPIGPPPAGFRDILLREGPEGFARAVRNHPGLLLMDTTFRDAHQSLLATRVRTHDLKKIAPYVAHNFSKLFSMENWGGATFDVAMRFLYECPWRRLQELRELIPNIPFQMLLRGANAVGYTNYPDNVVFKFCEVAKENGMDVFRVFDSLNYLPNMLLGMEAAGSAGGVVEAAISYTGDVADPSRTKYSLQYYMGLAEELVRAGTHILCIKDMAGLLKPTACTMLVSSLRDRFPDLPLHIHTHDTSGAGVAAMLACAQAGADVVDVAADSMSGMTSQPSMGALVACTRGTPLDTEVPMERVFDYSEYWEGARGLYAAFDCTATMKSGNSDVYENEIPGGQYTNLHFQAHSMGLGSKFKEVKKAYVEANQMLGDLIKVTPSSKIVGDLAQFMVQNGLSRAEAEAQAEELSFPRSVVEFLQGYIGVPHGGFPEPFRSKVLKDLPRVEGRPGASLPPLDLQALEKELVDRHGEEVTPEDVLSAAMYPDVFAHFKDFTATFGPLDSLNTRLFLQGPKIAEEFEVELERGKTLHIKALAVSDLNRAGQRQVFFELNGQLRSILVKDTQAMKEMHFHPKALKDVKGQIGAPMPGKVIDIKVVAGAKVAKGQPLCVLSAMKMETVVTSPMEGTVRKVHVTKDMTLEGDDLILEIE", "UniProt Q15366, whole entry, looked up": "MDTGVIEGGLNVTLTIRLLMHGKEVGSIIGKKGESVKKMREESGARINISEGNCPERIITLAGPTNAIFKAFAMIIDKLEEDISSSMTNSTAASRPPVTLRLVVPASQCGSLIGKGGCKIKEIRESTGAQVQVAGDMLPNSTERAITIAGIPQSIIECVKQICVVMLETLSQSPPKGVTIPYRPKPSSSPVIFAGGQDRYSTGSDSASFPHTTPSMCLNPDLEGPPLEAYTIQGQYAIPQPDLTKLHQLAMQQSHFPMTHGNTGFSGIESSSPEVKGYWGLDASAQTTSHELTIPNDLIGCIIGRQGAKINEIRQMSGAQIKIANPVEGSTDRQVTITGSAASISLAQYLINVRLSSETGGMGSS", "UniProt O15212, whole entry, looked up": "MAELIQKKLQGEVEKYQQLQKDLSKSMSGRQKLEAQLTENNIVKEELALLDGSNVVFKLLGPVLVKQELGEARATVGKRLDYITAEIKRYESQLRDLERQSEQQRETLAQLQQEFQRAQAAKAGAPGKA", "UniProt P49585": "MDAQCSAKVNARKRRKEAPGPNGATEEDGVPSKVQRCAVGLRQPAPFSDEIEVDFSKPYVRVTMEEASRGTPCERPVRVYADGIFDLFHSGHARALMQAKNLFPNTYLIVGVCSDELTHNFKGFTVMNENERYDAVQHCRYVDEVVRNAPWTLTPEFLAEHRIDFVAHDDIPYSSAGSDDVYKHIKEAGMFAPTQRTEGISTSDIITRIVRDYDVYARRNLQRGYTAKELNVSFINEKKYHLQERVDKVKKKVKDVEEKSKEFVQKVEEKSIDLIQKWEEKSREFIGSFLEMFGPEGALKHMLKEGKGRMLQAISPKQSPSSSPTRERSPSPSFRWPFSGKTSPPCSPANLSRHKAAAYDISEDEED", "UniProt Q9NTI5": "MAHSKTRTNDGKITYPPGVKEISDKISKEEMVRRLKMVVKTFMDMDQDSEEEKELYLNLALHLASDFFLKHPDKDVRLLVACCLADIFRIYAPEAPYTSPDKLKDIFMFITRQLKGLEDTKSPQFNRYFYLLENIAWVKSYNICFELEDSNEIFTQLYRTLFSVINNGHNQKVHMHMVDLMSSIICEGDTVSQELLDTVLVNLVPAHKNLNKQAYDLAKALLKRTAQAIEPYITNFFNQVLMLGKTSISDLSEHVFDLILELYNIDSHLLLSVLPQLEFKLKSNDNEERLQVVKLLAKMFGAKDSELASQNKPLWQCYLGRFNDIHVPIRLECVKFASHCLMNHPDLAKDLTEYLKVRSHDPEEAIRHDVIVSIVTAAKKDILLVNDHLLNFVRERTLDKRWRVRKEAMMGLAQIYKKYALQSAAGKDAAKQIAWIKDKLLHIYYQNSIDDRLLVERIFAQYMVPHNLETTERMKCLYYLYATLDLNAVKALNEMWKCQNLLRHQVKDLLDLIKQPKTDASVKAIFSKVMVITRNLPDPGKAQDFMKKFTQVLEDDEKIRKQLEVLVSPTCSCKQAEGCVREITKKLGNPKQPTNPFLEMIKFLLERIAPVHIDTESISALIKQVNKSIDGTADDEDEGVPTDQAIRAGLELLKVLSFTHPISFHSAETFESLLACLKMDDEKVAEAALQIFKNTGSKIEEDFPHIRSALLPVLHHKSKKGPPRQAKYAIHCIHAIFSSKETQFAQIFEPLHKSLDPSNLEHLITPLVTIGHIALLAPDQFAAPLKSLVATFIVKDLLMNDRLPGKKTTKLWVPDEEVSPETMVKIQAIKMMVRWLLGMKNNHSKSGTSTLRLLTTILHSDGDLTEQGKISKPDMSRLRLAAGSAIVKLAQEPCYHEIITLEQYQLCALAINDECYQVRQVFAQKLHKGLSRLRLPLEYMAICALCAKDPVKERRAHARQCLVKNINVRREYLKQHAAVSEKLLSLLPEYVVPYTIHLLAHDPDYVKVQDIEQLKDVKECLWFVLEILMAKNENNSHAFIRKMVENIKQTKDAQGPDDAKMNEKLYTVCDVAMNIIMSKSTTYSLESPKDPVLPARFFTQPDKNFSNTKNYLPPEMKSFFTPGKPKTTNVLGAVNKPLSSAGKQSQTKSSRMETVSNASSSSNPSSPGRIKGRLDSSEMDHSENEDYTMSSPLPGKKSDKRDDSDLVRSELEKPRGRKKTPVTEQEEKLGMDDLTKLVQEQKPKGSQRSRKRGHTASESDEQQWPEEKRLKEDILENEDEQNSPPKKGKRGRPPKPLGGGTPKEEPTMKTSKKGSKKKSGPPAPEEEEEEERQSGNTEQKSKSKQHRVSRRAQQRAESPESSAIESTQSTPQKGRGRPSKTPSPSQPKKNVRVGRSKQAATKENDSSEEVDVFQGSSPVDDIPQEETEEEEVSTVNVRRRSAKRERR", "UniProt P30086": "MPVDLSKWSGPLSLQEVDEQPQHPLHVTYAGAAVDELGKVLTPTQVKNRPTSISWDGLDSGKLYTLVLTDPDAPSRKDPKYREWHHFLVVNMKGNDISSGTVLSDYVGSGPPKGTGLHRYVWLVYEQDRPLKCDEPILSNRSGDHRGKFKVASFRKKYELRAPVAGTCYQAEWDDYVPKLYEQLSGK", "UniProt Q9BUH6, whole entry, looked up": "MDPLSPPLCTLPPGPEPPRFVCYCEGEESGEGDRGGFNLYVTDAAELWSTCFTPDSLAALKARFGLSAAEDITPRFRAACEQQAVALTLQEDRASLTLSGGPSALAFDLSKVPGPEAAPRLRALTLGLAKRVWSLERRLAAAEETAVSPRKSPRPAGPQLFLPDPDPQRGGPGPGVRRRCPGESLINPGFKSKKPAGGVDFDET", "UniProt O96011": "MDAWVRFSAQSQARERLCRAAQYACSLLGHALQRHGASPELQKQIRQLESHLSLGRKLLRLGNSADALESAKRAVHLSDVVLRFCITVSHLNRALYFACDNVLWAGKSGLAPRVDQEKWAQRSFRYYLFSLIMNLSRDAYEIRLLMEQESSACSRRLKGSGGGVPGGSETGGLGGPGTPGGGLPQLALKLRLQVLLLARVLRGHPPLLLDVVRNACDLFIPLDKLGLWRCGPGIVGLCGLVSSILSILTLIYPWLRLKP", "UniProt P61457": "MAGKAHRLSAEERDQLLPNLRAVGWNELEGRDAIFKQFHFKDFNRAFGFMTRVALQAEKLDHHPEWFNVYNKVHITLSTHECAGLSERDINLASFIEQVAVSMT", "UniProt O95453": "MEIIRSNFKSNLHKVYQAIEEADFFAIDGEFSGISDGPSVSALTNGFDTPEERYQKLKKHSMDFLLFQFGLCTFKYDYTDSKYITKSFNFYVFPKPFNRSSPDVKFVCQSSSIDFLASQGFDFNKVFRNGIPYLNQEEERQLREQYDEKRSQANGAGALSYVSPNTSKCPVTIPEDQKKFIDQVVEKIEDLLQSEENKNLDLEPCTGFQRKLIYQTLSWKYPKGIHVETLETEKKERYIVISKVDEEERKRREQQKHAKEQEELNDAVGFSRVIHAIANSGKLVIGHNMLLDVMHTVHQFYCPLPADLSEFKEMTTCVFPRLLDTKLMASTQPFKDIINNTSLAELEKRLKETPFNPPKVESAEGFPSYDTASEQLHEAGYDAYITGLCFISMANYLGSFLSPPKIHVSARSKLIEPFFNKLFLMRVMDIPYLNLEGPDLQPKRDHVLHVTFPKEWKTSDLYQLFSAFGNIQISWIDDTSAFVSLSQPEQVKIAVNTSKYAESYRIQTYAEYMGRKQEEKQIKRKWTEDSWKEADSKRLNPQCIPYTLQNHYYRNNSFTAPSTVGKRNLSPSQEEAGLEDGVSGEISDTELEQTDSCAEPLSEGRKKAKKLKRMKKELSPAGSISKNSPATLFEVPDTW", "UniProt Q9UGN5": "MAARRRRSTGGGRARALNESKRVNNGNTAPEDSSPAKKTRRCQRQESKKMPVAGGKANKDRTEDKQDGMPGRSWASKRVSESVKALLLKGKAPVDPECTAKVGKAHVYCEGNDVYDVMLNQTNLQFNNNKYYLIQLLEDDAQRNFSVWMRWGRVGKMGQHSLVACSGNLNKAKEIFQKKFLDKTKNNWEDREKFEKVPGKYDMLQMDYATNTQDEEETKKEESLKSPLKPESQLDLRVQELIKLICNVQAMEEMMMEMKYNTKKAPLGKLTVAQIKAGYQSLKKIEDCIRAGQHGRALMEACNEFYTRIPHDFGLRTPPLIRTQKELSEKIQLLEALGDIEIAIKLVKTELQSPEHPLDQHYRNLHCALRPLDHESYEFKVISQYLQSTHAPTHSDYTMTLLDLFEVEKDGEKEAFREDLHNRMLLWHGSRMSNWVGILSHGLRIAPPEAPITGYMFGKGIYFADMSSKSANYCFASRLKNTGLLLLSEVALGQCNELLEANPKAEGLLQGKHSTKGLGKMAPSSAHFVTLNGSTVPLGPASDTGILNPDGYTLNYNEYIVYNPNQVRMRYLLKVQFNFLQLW"}, "source": "the supplement of paper PMC10849652", "note": "This is one part of the list.", "data": [{"compound": "CN1CCC(CNc2ccc3ncc(-c4cccc(OC(F)(F)F)c4)n3n2)CC1", "assay": "log2 fold change, soluble protein after heating vs DMSO (PISA); higher = thermal stabilisation; K562 lysate, 10 uM; active = over 0.2 and 3.5 SD of the protein, either way, in both replicates (recomputed)", "method_in_brief": "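K562 pellets were dounce-homogenised in PBS pH 7.4 with 1 mM MgCl2, and the crude extract at 1 mg/mL protein was treated with 10 μM compound for 30 min. Aliquots were heated for 3 min across 48°C-58°C, pooled, and brought to 0.5% NP-40 at 4°C; soluble protein was the supernatant after 21,000xg for 90 min. Soluble protein was quantified by TMTpro 16plex LC-MS/MS with channel sums equalised, and reported as log2 fold change in thermal stability against DMSO controls, with values from duplicates.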", "values": [{"target": "PDCD2 (UniProt Q16342)", "log2 fold change": "inactive: 0"}, {"target": "PGAM1 (UniProt P18669)", "log2 fold change": "inactive: -0.026"}, {"target": "PDCD6IP isoform 2 (UniProt Q8WUM4)", "log2 fold change": "inactive: -0.054"}, {"target": "PC (UniProt P11498)", "log2 fold change": "inactive: -0.034"}, {"target": "PCBP2 isoform 3 (UniProt Q15366)", "log2 fold change": "inactive: -0.002"}, {"target": "PCIF1 (UniProt Q9H4Z3)", "log2 fold change": "inactive: 0.011"}, {"target": "PFDN6 (UniProt O15212)", "log2 fold change": "inactive: -0.1"}, {"target": "PCYT1A (UniProt P49585)", "log2 fold change": "inactive: 0.006"}, {"target": "PCBP3 (UniProt P57721)", "log2 fold change": "inactive: 0.032"}, {"target": "PDS5B (UniProt Q9NTI5)", "log2 fold change": "inactive: -0.026"}, {"target": "PEBP1 (UniProt P30086)", "log2 fold change": "inactive: 0.011"}, {"target": "PAXX (UniProt Q9BUH6)", "log2 fold change": "inactive: 0.047"}, {"target": "PFDN5 (UniProt Q99471)", "log2 fold change": "inactive: -0.12"}, {"target": "PGAM5 (UniProt Q96HS1)", "log2 fold change": "inactive: 0.036"}, {"target": "PEX11B (UniProt O96011)", "log2 fold change": "inactive: -0.014"}, {"target": "PFKL isoform 2 (UniProt P17858)", "log2 fold change": "inactive: -0.051"}, {"target": "PEPD (UniProt P12955)", "log2 fold change": "inactive: 0.04"}, {"target": "PEX13 (UniProt Q92968)", "log2 fold change": "inactive: -0.041"}, {"target": "PCBD1 (UniProt P61457)", "log2 fold change": "inactive: 0.001"}, {"target": "PARN (UniProt O95453)", "log2 fold change": "inactive: -0.032"}, {"target": "PARP2 (UniProt Q9UGN5)", "log2 fold change": "inactive: 0.003"}, {"target": "PELP1 (UniProt Q8IZL8)", "log2 fold change": "inactive: -0.009"}, {"target": "PDCD10 (UniProt Q9BUL8)", "log2 fold change": "inactive: 0.029"}]}]}
